The values below come from the supplement of paper PMC6411743.

By UniProt entry, the sequences of proteins in these tests, tags left out. Where a name states a change or a piece, a line headed by the entry shows the natural chain unless it says otherwise.
UniProt Q08945, whole entry: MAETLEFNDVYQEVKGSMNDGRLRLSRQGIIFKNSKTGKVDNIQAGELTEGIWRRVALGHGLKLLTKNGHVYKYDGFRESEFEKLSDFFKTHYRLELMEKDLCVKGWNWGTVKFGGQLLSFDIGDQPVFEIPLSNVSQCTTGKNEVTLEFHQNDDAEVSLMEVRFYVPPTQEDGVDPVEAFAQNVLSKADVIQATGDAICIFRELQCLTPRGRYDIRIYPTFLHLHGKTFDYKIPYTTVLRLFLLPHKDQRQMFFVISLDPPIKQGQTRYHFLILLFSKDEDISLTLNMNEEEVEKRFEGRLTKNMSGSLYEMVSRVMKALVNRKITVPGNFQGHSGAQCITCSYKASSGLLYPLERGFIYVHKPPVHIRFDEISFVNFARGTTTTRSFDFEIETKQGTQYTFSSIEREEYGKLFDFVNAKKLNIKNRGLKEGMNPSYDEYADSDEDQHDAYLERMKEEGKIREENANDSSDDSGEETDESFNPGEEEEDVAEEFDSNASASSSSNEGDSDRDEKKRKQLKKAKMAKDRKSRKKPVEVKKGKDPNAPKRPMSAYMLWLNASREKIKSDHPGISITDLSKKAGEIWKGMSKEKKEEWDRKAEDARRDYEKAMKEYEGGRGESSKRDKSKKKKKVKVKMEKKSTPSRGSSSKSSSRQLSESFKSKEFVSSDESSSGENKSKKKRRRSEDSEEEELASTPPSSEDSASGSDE
UniProt Q12846: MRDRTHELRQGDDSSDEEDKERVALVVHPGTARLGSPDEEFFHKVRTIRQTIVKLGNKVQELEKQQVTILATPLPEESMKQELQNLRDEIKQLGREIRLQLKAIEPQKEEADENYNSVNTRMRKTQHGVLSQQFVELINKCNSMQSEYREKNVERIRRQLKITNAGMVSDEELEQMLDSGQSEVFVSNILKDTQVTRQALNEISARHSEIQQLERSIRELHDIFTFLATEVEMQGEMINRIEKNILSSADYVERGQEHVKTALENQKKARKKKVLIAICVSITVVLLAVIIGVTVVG
UniProt Q14240, whole entry: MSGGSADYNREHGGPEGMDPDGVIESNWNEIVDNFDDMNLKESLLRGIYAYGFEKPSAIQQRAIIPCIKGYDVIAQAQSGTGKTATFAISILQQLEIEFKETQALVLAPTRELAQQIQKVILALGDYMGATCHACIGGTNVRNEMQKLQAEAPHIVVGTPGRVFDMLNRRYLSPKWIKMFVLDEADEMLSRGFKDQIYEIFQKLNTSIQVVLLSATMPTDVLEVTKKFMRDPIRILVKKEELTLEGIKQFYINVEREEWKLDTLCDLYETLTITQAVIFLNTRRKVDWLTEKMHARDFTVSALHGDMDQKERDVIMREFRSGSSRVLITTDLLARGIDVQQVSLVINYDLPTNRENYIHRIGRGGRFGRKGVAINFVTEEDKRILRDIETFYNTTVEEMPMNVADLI
UniProt Q04760: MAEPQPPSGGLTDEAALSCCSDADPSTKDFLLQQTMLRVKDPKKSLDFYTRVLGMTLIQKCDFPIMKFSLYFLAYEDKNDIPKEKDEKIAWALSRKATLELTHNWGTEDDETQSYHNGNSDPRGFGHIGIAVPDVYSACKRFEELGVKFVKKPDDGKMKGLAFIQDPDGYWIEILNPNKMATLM
UniProt Q12765: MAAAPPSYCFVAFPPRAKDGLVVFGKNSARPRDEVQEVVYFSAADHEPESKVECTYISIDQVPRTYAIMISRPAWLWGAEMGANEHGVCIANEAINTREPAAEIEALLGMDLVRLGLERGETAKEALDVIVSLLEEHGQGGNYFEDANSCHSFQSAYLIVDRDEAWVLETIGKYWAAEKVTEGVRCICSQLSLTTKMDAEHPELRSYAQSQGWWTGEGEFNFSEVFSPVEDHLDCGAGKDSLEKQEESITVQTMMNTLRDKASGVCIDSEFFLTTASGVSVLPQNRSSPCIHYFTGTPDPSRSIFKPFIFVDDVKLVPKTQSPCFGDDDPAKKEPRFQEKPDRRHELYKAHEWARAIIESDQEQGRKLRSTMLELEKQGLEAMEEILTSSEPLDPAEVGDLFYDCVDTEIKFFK

± gives the standard deviation of the averaged measurements. The list shows a part of the results.

Compound in this assay: Nc1nc2c(ncn2[C@@H]2O[C@H](COP(=O)(O)OP(=O)(O)OP(=O)(O)O)[C@@H](O)[C@H]2O)c(=O)[nH]1 [guanosine triphosphate]
Description: NP40-soluble protein abundance relative to vehicle (solubility fold change) (ratio); higher = more soluble protein in presence of GTP. On the procedure: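 Solubility proteome profiling in Jurkat crude lysate. Lysate was treated with Mg-GTP (0.1-10 mM) for 10 min at room temperature and 3 min at 37 °C, then solubilised with 0.8% NP40 and benzonase, followed by ultracentrifugation. Proteins were quantified by TMT10 LC-MS/MS; the value is the NP40-soluble abundance relative to the NP40-processed vehicle, from 3 independent experiments.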

On to SSRP1 (UniProt Q08945), for which the NP40-soluble protein abundance (concentration: 0.1mM) came out at 0.94 ± 0.046; the NP40-soluble protein abundance (concentration: 0.5mM) came out at 0.927 ± 0.052; the NP40-soluble protein abundance (concentration: 1mM) was found to be 0.976 ± 0.011; the NP40-soluble protein abundance (concentration: 2mM) came out at 0.959 ± 0.02; the NP40-soluble protein abundance (concentration: 4mM) turned out to be 1.06 ± 0.04; the NP40-soluble protein abundance (concentration: 6mM) worked out at 1.18 ± 0.041. Further, the NP40-soluble protein abundance by setting is: (concentration: 8mM) 1.33 ± 0.15; (concentration: 10mM) 1.69 ± 0.2.

Consider STX4 (UniProt Q12846), for which the NP40-soluble protein abundance (concentration: 0.1mM) was found to be 1 ± 0.019; the NP40-soluble protein abundance (concentration: 0.5mM) is 0.984 ± 0.02; the NP40-soluble protein abundance (concentration: 1mM) worked out at 0.987 ± 0.051; the NP40-soluble protein abundance (concentration: 2mM) stood at 0.989 ± 0.052; the NP40-soluble protein abundance (concentration: 4mM) stood at 0.941 ± 0.057; the NP40-soluble protein abundance (concentration: 6mM) amounted to 0.946 ± 0.036. The NP40-soluble protein abundance runs as follows: (concentration: 8mM) 0.919 ± 0.059; (concentration: 10mM) 0.923 ± 0.039.

On to UniProt Q14240 and related entries, for which the NP40-soluble protein abundance is, setting by setting: (concentration: 0.1mM) 0.978 ± 0.071; (concentration: 0.5mM) 1.03 ± 0.087; (concentration: 1mM) 0.964 ± 0.06; (concentration: 2mM) 0.972 ± 0.053; (concentration: 4mM) 0.995 ± 0.068; (concentration: 6mM) 0.998 ± 0.1. Further, the NP40-soluble protein abundance (concentration: 8mM) amounted to 0.978 ± 0.089 and the NP40-soluble protein abundance (concentration: 10mM) was found to be 0.964 ± 0.083.

In the case of UniProt Q04760 and related entries, the NP40-soluble protein abundance by setting is: (concentration: 0.1mM) 0.844 ± 0.078; (concentration: 0.5mM) 0.808 ± 0.022; (concentration: 1mM) 0.92 ± 0.066; (concentration: 2mM) 0.891 ± 0.038; (concentration: 4mM) 0.877 ± 0.031; (concentration: 6mM) 0.882 ± 0.024. Also, the NP40-soluble protein abundance (concentration: 8mM) is 0.799 ± 0.1 and the NP40-soluble protein abundance (concentration: 10mM) is 0.884 ± 0.036.

Consider UniProt Q12765 and related entries, for which the NP40-soluble protein abundance by setting is: (concentration: 0.1mM) 0.967 ± 0.015; (concentration: 0.5mM) 1.01 ± 0.034; (concentration: 1mM) 0.951 ± 0.031; (concentration: 2mM) 0.943 ± 0.037; (concentration: 4mM) 0.937 ± 0.046; (concentration: 6mM) 0.943 ± 0.022. For the same target, the NP40-soluble protein abundance runs as follows: (concentration: 8mM) 0.949 ± 0.029; (concentration: 10mM) 0.934 ± 0.031.
